Laboratory results published in publication PMC5356829.
No constants are given. Whether binding was seen depends on the method and setting. In cells and extracts the contact can be indirect. A yes stands for co-enrichment or nearness to the bait. Other partners may have been found. No binding means not detected with the bait.

Sequences of proteins named here, by UniProt entry; tags and fusion partners are left off. A change or cut given only in a name is not applied to a line headed by its entry. A line that says so, or that is headed by a name, gives the form on record, which may keep a tag or linker. Residues count along the entry.
UniProt P23511: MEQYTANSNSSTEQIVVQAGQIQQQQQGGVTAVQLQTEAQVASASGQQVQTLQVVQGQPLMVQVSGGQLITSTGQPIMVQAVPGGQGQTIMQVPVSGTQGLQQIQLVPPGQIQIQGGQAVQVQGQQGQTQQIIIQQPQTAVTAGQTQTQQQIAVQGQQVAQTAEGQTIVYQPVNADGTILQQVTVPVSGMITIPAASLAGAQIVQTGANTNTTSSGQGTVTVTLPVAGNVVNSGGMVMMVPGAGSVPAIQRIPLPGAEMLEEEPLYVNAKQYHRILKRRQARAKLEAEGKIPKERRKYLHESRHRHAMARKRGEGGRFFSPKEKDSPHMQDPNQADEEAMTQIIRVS
lamin A (endogenous) (P02545, residues 1-646): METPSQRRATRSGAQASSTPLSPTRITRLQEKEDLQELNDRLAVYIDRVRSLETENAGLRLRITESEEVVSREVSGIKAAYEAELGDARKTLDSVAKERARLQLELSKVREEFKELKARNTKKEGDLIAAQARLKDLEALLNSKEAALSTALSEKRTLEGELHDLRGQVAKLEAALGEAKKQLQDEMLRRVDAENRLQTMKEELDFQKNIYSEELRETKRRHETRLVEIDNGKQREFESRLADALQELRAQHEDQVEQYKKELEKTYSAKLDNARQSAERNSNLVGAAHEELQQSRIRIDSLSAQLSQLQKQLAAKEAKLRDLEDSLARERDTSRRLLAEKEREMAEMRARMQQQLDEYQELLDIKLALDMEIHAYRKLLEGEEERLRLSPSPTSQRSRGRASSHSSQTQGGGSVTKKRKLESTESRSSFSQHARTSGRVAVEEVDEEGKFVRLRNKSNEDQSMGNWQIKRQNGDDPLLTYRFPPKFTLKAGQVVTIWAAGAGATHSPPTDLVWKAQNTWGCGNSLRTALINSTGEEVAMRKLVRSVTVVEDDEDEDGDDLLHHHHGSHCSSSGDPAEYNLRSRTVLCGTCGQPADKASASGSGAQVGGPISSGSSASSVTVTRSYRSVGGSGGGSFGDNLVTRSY
lamin C (endogenous) (P02545-2, form named): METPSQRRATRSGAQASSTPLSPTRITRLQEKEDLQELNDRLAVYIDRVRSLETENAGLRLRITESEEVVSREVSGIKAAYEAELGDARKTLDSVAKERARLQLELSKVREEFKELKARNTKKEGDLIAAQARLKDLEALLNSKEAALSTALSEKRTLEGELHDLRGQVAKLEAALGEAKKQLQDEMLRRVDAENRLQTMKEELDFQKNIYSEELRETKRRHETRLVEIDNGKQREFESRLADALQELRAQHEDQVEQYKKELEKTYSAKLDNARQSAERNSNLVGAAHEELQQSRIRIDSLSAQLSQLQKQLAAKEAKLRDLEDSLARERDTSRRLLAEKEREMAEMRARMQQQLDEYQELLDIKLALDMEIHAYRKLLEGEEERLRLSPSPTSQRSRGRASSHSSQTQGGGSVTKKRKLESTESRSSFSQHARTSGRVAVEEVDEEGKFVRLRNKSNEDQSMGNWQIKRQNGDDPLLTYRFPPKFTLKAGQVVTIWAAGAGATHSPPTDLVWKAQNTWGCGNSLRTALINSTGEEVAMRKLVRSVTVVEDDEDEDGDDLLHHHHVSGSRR

Target: NF-YA, long isoform, overexpressed in SKBR3 cells (UniProt P23511)
Experiment: affinity purification with mass spectrometry; lysates (2 mg/sample) of SKBR3 cells overexpressing long NF-YA, precipitated 4 h at 4 °C with anti-NF-YA polyclonal antibody cross-linked to protein G; bands cut from SDS-PAGE gel, MALDI-MS and MS/MS

| binding | Substance |
| --- | --- |
| no binding | lamin C (endogenous) (from UniProt P02545-2 1-572) |
| binds | lamin A (endogenous) (from UniProt P02545 1-646) |
